Measured values published in the supplement of paper PMC11006884.
The entries are a selection whose mix differs from that of the whole data set.

Amino acid sequences for entries named in this document (tags omitted). A change or cut given only in a name is not applied to a line headed by its entry.
UniProt Q15345: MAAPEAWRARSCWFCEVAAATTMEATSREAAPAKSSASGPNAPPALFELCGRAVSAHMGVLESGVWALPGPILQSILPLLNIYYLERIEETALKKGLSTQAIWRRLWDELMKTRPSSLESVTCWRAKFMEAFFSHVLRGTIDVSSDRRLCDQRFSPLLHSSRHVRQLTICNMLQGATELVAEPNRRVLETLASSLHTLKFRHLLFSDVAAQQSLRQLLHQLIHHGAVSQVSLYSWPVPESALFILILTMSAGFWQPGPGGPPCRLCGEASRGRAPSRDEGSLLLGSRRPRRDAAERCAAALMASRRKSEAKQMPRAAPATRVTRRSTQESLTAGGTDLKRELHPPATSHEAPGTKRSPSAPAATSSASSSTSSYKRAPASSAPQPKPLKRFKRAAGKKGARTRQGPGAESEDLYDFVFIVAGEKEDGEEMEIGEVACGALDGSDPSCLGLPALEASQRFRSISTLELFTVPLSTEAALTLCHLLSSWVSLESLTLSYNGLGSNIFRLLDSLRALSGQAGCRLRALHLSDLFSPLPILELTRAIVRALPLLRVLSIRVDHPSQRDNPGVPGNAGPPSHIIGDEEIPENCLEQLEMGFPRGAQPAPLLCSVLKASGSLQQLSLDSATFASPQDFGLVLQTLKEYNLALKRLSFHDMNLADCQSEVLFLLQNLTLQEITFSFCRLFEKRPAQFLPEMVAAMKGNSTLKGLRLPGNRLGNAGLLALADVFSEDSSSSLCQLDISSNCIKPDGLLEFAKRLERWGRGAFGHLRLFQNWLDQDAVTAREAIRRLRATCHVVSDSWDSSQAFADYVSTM
UniProt Q15750: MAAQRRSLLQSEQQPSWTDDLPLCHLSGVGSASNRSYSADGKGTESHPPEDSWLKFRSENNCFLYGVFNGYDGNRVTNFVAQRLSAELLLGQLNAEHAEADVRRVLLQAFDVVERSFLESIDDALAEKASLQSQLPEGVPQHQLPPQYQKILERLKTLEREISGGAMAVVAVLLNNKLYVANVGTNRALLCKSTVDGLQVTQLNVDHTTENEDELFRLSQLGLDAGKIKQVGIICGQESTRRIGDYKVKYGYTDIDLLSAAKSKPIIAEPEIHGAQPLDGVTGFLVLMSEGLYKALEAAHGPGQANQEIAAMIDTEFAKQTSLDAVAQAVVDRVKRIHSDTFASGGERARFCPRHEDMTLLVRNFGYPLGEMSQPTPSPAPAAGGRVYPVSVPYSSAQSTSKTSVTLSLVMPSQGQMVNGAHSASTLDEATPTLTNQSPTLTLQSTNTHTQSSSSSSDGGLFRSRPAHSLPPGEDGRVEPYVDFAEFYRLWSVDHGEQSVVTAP
UniProt Q53EL6: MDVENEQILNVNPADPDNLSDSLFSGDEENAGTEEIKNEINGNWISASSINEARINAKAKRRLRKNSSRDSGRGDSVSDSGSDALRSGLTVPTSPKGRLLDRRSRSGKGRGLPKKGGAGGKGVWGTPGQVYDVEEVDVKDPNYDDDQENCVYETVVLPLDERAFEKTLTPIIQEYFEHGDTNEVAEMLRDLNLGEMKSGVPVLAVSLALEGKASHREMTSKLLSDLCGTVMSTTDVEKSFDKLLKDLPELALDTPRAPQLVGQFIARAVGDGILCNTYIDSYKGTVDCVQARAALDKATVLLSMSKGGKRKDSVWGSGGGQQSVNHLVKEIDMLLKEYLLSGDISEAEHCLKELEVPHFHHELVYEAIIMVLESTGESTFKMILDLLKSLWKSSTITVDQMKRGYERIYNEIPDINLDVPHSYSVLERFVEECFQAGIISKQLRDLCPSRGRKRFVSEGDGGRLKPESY
UniProt Q2NL82: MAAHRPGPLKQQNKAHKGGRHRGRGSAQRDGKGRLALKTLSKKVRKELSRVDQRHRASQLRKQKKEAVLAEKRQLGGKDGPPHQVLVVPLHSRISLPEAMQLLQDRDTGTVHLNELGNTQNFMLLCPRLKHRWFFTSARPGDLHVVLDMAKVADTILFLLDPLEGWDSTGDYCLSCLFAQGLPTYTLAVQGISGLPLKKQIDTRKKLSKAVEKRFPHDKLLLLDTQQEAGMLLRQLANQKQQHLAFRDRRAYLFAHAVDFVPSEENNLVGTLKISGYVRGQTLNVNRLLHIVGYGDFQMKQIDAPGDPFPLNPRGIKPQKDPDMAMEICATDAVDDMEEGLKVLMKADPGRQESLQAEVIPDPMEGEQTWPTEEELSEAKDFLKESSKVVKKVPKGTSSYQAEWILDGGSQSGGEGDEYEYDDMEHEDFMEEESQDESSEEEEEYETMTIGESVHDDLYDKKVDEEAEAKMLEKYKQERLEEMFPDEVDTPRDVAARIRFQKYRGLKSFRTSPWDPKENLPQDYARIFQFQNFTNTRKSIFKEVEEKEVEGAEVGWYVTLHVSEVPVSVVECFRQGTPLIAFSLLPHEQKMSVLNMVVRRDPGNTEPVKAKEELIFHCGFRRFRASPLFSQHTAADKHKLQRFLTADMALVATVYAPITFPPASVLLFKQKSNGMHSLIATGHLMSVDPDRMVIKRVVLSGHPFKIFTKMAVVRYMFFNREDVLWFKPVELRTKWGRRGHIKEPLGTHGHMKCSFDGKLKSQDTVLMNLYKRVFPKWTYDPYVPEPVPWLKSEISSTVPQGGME
UniProt Q16637, whole entry: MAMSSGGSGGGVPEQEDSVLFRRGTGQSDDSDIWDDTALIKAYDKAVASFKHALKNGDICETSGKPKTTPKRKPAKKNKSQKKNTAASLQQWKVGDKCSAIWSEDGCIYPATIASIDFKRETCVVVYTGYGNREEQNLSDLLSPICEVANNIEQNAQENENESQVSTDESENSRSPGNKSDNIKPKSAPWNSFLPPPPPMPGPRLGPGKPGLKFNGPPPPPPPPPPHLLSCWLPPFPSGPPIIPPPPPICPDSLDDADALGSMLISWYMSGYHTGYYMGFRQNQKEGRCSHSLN
UniProt Q2M389: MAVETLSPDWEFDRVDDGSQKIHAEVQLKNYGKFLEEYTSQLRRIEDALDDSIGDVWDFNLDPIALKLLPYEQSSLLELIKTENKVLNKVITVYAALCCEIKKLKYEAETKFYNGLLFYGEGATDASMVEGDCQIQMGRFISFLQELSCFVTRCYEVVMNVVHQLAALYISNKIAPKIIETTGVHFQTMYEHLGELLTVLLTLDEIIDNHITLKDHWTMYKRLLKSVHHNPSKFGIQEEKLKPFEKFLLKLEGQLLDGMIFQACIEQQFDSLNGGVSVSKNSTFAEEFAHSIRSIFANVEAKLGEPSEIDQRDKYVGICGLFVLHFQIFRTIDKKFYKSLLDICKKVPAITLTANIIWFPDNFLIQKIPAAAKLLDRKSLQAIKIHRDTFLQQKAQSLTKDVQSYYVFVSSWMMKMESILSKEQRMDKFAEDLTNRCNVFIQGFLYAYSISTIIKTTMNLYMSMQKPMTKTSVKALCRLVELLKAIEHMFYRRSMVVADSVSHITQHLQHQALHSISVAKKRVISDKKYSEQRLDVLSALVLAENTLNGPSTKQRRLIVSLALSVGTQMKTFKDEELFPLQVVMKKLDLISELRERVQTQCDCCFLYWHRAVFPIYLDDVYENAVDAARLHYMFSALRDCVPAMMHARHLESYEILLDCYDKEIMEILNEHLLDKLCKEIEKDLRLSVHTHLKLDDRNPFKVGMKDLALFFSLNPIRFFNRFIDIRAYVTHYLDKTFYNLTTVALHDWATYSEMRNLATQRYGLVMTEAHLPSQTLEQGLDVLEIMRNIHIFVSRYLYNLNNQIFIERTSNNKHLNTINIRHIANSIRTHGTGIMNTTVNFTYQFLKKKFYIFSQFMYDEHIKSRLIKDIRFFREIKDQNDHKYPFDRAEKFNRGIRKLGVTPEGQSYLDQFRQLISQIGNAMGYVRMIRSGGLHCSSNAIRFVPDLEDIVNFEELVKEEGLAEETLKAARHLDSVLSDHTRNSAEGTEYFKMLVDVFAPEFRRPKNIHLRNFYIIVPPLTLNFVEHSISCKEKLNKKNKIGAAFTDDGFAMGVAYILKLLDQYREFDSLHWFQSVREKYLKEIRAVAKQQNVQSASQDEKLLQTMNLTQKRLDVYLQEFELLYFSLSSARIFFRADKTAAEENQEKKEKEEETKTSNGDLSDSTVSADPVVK
UniProt Q15233: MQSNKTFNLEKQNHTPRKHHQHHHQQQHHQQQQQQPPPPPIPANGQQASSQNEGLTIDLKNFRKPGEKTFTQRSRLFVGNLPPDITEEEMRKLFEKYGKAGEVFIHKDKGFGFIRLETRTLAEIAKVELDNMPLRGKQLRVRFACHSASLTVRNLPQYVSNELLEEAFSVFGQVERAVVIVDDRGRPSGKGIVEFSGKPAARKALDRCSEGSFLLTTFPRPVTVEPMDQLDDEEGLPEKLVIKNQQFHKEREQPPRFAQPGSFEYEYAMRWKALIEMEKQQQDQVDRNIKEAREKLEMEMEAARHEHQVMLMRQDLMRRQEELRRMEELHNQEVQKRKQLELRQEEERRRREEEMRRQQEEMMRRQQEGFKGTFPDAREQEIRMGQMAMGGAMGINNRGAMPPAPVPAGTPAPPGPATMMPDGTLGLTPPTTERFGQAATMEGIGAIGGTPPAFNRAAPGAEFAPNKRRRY
UniProt Q15648, whole entry, looked up: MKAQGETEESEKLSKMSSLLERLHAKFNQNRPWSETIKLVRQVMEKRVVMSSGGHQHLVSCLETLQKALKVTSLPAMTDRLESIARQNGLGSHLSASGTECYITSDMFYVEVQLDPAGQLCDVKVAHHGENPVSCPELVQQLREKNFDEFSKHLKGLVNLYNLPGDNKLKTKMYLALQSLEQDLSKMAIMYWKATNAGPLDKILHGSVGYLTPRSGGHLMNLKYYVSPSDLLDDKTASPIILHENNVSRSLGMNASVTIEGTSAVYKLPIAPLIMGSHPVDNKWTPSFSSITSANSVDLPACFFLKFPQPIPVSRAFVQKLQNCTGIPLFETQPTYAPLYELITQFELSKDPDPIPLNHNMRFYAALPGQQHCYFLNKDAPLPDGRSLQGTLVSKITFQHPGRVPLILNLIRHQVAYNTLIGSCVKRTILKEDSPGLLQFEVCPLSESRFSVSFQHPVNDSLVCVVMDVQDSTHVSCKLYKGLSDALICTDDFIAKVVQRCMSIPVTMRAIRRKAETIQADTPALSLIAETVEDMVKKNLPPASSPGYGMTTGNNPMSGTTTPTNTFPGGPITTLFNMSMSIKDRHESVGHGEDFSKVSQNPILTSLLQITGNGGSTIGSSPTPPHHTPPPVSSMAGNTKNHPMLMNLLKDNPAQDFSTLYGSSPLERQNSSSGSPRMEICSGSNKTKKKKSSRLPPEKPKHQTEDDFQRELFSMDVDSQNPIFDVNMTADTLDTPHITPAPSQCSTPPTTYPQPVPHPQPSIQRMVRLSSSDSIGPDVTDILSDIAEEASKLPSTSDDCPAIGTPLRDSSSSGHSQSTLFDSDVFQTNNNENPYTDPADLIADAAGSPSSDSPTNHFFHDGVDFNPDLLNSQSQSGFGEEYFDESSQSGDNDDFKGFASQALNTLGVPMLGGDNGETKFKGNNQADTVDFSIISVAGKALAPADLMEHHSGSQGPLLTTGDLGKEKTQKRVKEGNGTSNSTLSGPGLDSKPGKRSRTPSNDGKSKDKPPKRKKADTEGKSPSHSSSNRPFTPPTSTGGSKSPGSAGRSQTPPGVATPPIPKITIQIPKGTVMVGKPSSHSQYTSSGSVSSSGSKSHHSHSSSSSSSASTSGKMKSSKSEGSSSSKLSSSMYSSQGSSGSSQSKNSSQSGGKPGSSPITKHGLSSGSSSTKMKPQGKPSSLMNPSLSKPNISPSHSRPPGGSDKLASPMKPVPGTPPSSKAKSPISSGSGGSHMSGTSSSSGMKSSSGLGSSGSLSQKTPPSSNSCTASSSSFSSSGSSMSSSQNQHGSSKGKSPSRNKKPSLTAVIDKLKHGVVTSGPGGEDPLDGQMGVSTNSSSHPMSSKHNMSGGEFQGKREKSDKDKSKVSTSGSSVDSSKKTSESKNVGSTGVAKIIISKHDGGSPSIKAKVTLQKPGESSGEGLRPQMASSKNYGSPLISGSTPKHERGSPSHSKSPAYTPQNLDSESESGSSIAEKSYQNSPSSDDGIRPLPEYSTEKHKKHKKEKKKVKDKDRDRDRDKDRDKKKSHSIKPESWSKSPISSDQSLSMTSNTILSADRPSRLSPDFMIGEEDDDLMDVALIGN
UniProt Q52LJ0: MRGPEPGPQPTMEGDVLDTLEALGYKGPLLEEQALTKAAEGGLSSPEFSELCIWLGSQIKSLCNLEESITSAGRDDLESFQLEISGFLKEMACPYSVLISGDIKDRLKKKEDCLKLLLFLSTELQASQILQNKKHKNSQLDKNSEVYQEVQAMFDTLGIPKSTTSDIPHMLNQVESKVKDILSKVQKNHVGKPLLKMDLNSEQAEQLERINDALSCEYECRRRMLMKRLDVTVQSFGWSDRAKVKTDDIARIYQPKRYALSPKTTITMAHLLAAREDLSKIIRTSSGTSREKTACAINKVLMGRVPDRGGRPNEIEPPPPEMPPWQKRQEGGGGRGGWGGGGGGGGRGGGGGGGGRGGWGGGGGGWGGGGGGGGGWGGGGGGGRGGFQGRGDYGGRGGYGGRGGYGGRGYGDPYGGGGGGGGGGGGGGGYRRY

The targets below were run with COC(=O)C#Cc1ccccc1 [methyl 3-phenylpropiolate] (assay: log2 ratio of iodoacetamide-alkyne labeling of the cysteine site, DMSO over compound (competition); higher = stronger covalent engagement of the cysteine by the compound, active = 1 or more). Details: 500 µM; treatment time 1 h; system: HEK293T cell lysate.
Summary of the method: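 Reporter intensities give each cysteine's log2 competition ratio as the mean of control channels over the mean of compound channels. The samples were HEK293T lysate (2 mg/mL) given vehicle or electrophile (500 µM, 1 h, ambient temperature), then iodoacetamide alkyne (1 h), followed by click coupling to sCIP-TMT reagents, pooling, trypsin digestion overnight at 37 °C, streptavidin enrichment, acid elution, Orbitrap Eclipse LC-MS/MS with FAIMS and FragPipe quantification. Duplicate channels and three replicates were run, and cysteines quantified in only one replicate were discarded.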

log2 ratio of iodoacetamide-alkyne labeling, inactive:
GLYR1 C303 (UniProt Q49A26) 0.194
DBN1 C96 (UniProt Q16643) 0.28
RABEP1 C536 (UniProt Q15276) 0.143
LRRC41 C792 (UniProt Q15345) 0.506
UniProt Q15750_C62 0.202
HNRNPUL2 C452 (UniProt Q1KMD3) -0.0936
PDCD4 C275 (UniProt Q53EL6) 0.697
UniProt Q15365_C109 0.524
TSR1 C126 (UniProt Q2NL82) 0.753
UniProt Q16637_C60 0.597
UniProt Q2M389_C936 0.504
NONO C145 (UniProt Q15233) 0.485
MED1 C324 (UniProt Q15648) -0.00344
UniProt Q15369_C11 0.0418
FAM98B C63 (UniProt Q52LJ0) 0.105
